Experimental findings from article PMC6300356, “DNA translocation mechanism of an XPD family helicase” are described below.

Holding throughout (test): MST
For series [1], the target named is T1, DinG R673A (Escherichia coli) (UniProt P27296).
T1 sequence (looked up): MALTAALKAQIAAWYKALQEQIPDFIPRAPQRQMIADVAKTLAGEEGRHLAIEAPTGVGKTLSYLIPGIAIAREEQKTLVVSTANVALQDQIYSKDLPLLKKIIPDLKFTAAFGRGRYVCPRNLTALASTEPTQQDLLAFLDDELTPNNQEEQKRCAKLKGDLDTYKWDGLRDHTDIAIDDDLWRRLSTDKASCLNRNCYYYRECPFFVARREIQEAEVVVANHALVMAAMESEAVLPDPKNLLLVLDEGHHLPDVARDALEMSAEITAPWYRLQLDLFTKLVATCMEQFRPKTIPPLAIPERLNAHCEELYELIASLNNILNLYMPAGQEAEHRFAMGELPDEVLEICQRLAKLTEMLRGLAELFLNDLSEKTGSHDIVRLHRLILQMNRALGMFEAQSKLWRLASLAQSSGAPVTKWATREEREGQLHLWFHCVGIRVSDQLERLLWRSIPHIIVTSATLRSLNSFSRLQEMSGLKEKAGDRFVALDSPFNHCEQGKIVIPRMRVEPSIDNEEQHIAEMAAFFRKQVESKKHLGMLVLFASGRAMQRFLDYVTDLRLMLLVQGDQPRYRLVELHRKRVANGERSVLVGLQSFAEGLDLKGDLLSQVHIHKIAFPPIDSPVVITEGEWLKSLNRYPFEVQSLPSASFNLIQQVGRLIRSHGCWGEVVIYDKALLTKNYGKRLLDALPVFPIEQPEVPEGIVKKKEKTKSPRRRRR
As to conditions: MST: 25 mM Tris pH 8.0, 200 mM NaCl, 1 mM DTT, 5% glycerol, 25 C, 10 nM ssDNA; recombinant protein; residues 1-716; protein details: His6-MBP-TEV N-terminal, removed by TEV; label: 5' FAM; single-stranded DNA.

Series [2] addresses T2, DinG Y636A (Escherichia coli) (UniProt P27296).
T2 sequence (looked up): T1 sequence (looked up) with Y636A, A673R
As to conditions: MST: 25 mM Tris pH 8.0, 200 mM NaCl, 1 mM DTT, 5% glycerol, 25 C, 10 nM ssDNA; recombinant protein; residues 1-716; protein details: His6-MBP-TEV N-terminal, removed by TEV; label: 5' FAM; single-stranded DNA.

Series [3] has as its target T3, DinG I618A (Escherichia coli) (UniProt P27296).
T3 sequence (looked up): T1 sequence (looked up) with I618A, A673R
As to conditions: MST: 25 mM Tris pH 8.0, 200 mM NaCl, 1 mM DTT, 5% glycerol, 25 C, 10 nM ssDNA; recombinant protein; residues 1-716; protein details: His6-MBP-TEV N-terminal, removed by TEV; label: 5' FAM; single-stranded DNA.

The target in series [4] is T4, DinG (Escherichia coli) (UniProt P27296).
T4 sequence (looked up): T1 sequence (looked up) with A673R
As to conditions: MST: 25 mM Tris pH 8.0, 200 mM NaCl, 1 mM DTT, 5% glycerol, 25 C, 10 nM ssDNA; recombinant protein; residues 1-716; protein details: His6-MBP-TEV N-terminal, removed by TEV; label: 5' FAM; single-stranded DNA.

For series [5], the target named is T5, DinG R211A (Escherichia coli) (UniProt P27296).
T5 sequence (looked up): T1 sequence (looked up) with R211A, A673R
As to conditions: minor defect; MST: 25 mM Tris pH 8.0, 200 mM NaCl, 1 mM DTT, 5% glycerol, 25 C, 10 nM ssDNA; recombinant protein; residues 1-716; protein details: His6-MBP-TEV N-terminal, removed by TEV; label: 5' FAM; single-stranded DNA.

Series [6] addresses T6, DinG R117A (Escherichia coli) (UniProt P27296).
T6 sequence (looked up): T1 sequence (looked up) with R117A, A673R
As to conditions: minor defect; MST: 25 mM Tris pH 8.0, 200 mM NaCl, 1 mM DTT, 5% glycerol, 25 C, 10 nM ssDNA; recombinant protein; residues 1-716; protein details: His6-MBP-TEV N-terminal, removed by TEV; label: 5' FAM; single-stranded DNA.

In series [7] the target is T7, DinG F638A (Escherichia coli) (UniProt P27296).
T7 sequence (looked up): T1 sequence (looked up) with F638A, A673R
As to conditions: MST: 25 mM Tris pH 8.0, 200 mM NaCl, 1 mM DTT, 5% glycerol, 25 C, 10 nM ssDNA; recombinant protein; residues 1-716; protein details: His6-MBP-TEV N-terminal, removed by TEV; label: 5' FAM; single-stranded DNA.

Series [8] has as its target T8, DinG F615A (Escherichia coli) (UniProt P27296).
T8 sequence (looked up): T1 sequence (looked up) with F615A, A673R
As to conditions: MST: 25 mM Tris pH 8.0, 200 mM NaCl, 1 mM DTT, 5% glycerol, 25 C, 10 nM ssDNA; recombinant protein; residues 1-716; protein details: His6-MBP-TEV N-terminal, removed by TEV; label: 5' FAM; single-stranded DNA.

Substitutions are numbered along the chain they refer to. For some assays here: The comparison behind a weaker result is the experiment's own reference, which may not be listed here. Where a protein sequence is shown, tags need not be part of it. For some assays here: Construct, isoform or probe ends are uncertain for at least one entry. For some assays here: At least one verdict was read from the data and is not stated in words by the source.

With “TTTTTTTTTTTTTT [dT14 (14 base oligo-dT)]”, the binding result in series [1] is “binds more weakly”; in series [2], “binds more weakly”; in series [3] it was “binds more weakly”; in series [4], “binds”; in series [5], “binds more weakly”; in series [6], “binds more weakly”. For the same sequence, the binding result in series [7] and in series [8] was “binds more weakly” each time.
